# Results published in PubChem BioAssay AID2685 (National Center for Advancing Translational Sciences (NCATS), 2010).
# Hit rate of the full screen: of about 320,000 compounds, about 2,100 (0.66%) were called active. Inconclusive results, whose numbers are uncertain, are shown with a selection of clear calls. Calls come from the whole dose curve; as a rule, active = well fitted inhibition curve with a large enough effect in the signal ratio, with a control signal flat (not every such curve was filed as active); inconclusive = small, poorly fitted or top-dose-only effect, or effect the other way, or a change in a side signal; inactive = flat fitted curve, though single readings scatter; the % refers to the signal ratio. Potencies of inconclusive entries are doubtful fits and often do not repeat.
# Assay: qHTS Assay for Lipid Storage Modulators in Drosophila S3 Cells
# Settings: BODIPY lipid droplet fluorescence, 18-24 h, cells fed with added oleic acid; lipid storage change, negative = inhibition: at 46.1 µM (top of the series) unless noted
# Outline: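 Drosophila S3 cells got compounds at several concentrations plus oleic acid (400 uM solution). Laser-scanning cytometry with 488 nm excitation read lipid droplets at 500-530 nm and cells at 575-640 nm. Percent activity was relative to 20 uM Triacsin C.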
# % is set by controls: 0 for no effect and ±100 for the full control effect; potency is the fitted concentration of half-maximal effect.
SMILES,"lipid storage change, negative = inhibition",Potency,outcome
CCCOc1ccc(CSc2n[nH]c(C)n2)cc1,inconclusive: 6.65%,–,–
Cc1ccc(NC(=O)CSc2nc3nc(C)c(Br)cc3[nH]2)cc1F,–,"inconclusive: 29.1 µM [falling, single point]",–
O=C(CCS(=O)(=O)c1ccccc1)Nc1ccc(S(=O)(=O)Nc2ncccn2)cc1,inconclusive: 225%,–,–
COc1ccc(/C=C/c2nnc(NC(=O)COc3ccc(C)cc3)s2)cc1,inconclusive: 28.6%,–,–
COc1ccc(Cl)cc1NCCC(O)c1ccc(F)cc1 (stereo not given),inconclusive: -20.4%,–,–
O=C(CN1CCOCC1)N1CCCc2c1c(=O)oc1ccc(OCc3ccccc3)cc21,–,"inconclusive: 2.06 µM [activator, partial curve]",–
Oc1ccc(/C=N/n2cnn(Cc3ccccc3Cl)c2=S)c(O)c1,–,"inconclusive: 29.1 µM [falling, single point]",–
CC(=O)NCCNc1nc2c(-c3cccc(C)c3)nnn2c2ccccc12,–,"inconclusive: 25.9 µM [falling, single point]",–
CCCCn1c(N)c(NCCC(C)C)c(=O)[nH]c1=O,inconclusive: 20%,–,–
O=C(CN1C(=O)NC2(CCOc3ccccc32)C1=O)c1ccc(Cl)cc1 (stereo not given),inconclusive,–,–
CCc1cc(=O)oc2cc(C)cc(OC(C)C(=O)NCC(O)c3ccccc3)c12 (stereo not given),inconclusive: 18.1%,–,–
CC12CCC(C(=O)N(NC(=O)c3cccnc3)C1=O)C2(C)C (stereo not given),–,"inconclusive: 29.1 µM [falling, single point]",–
COc1ccc(NS(=O)(=O)c2cc(NC(=O)c3cccc(OCc4c(C)noc4C)c3)ccc2OC)cc1,–,"inconclusive: 8.2 µM [activator, partial curve]",–
CCC(C(=O)Nc1ccc2c(c1)OCCO2)n1c(=O)[nH]c2ccccc2c1=O (stereo not given),–,–,inactive [at 46.1 µM]
CN(CC(=O)Nc1ccc(S(=O)(=O)N2CCOCC2)cc1)Cc1ccc(F)cc1,inconclusive: 19.6%,–,–
CCCCOc1ccc(C(=O)N/C(=C/C=C/c2ccccc2)C(=O)N2CCOCC2)cc1,inconclusive: 14.3%,–,–
c1ccc2c(c1)CCN(c1ncnc3c1[nH]c1ccccc13)C2,inconclusive: -176%,–,–
C=CCNC(=O)NC(=O)COC(=O)/C(C#N)=C/c1cc(C)n(CC(C)C)c1C,inactive: -18%,–,–
Cn1c(-c2ccc(Cl)nc2)nc2cc(Cl)ccc21,–,"inconclusive: 20.6 µM [falling, single point]",–
COc1cccc(NC(=O)Cc2cccs2)c1,inconclusive: 13%,–,–
CCOc1ccccc1-n1c(SCC(=O)N2CCOCC2)nnc1-c1ccccn1,inactive: 3.34%,–,–
O=C(CSc1nc2ccccc2c(=O)n1CC1CCCO1)NCc1ccccc1 (stereo not given),–,"inconclusive: 29.1 µM [falling, single point]",–
Cn1c(CCC(=O)O)nc2cc(S(=O)(=O)N3CCCCC3)ccc21,inconclusive: 11%,–,–
O=C(COC(=O)c1ccc(Cl)c(S(=O)(=O)N2CCCCCC2)c1)Nc1ccccc1,inconclusive: -6.59%,–,–
COc1cccc(NC(=O)CN(C)CC(=O)c2c(C)[nH]c3ccccc23)c1,inconclusive: 12.7%,–,–

# Fetched by compound from the entries so far:
SMILES,"lipid storage change, negative = inhibition",Potency,outcome
O=C(CN1CCOCC1)N1CCCc2c1c(=O)oc1ccc(OCc3ccccc3)cc21,–,"inconclusive: 2.06 µM [activator, partial curve]",–
Oc1ccc(/C=N/n2cnn(Cc3ccccc3Cl)c2=S)c(O)c1,–,"inconclusive: 29.1 µM [falling, single point]",–

# Full records, quoted from the list:
# O=C(CCS(=O)(=O)c1ccccc1)Nc1ccc(S(=O)(=O)Nc2ncccn2)cc1 reads lipid storage change, negative = inhibition: inconclusive: 225%
# COc1cccc(NC(=O)CN(C)CC(=O)c2c(C)[nH]c3ccccc23)c1 reads lipid storage change, negative = inhibition: inconclusive: 12.7%

# Next compounds:

SMILES,"lipid storage change, negative = inhibition",Potency,outcome
CC1(C)Cc2c(cnn2-c2cccc(F)c2)C(NC(=O)CSc2ccncc2)C1 (stereo not given),inconclusive: 16.7%,–,–
COC(=O)c1[nH]c2ccccc2c1NC(=O)CN1CC(C)OC(C)C1 (stereo not given),inconclusive: 5.03%,–,–
CCCCCN1C=CC=C/C1=C\C=C(C#N)C#N,–,"inconclusive: 29.1 µM [falling, single point]",–
CC1(C)C2CCC1(CS(=O)(=O)NC(CC(=O)O)c1cccc(Br)c1)C(=O)C2 (stereo not given),–,"inconclusive: 7.31 µM [activator, partial curve]",–
CCN1CCN(c2cc(C)c3cc(NC(=O)c4ccc(OC)c(OC)c4)ccc3n2)CC1,inconclusive: 16.5%,–,–
CCCCNC(=O)COC(=O)c1ccc(SC)cc1OC,inconclusive: 78.8%,–,–
COC(=O)c1ccccc1OCC(=O)N1CCN(c2ccc(F)cc2)CC1,inconclusive: 24.8%,–,–
Cc1ccc(S(=O)(=O)NCCC(=O)N2CCC(C)CC2)cc1,–,"inconclusive: 32.6 µM [falling, single point]",–
O=C(Nc1ccc(F)cc1)c1nc[nH]c1C(=O)Nc1ccccc1[N+](=O)[O-],–,"inconclusive: 0.0046 µM [falling, full curve, poor fit]",–
COc1cccc(C2SCC(=O)N2c2cccc(C)c2)c1OC (stereo not given),inconclusive: 18.8%,–,–
COc1cc(OC)cc(C(=O)NNC(=O)c2cc(S(=O)(=O)N3CCOCC3)ccc2F)c1,–,"inconclusive: 29.1 µM [activator, single point]",–
O=C(NCC1CCN(c2ccc(S(=O)(=O)N3CCOCC3)cc2)CC1)Nc1ccccc1,–,"inconclusive: 29.1 µM [falling, single point]",–
COCc1cc(C)nc(SCc2ccccc2)c1C#N,–,"inconclusive: 0.731 µM [activator, full curve]",–
C/C=C/COC(=O)C1=C(C)NC(=O)NC1c1ccc2c(c1)OCO2 (stereo not given),–,–,inactive [at 46.1 µM]
CCOc1cc(C(=O)Nc2cc(F)ccc2C)ccc1OCC(=O)N1CCOCC1,inconclusive: -6.09%,–,–
O=C(Cc1cccc(NC(=O)C2CCN(C(=O)CCc3ccccc3)CC2)c1)Nc1cccc(C(=O)N2CCCC2)c1,–,–,inactive [at 46.1 µM]
COc1ccc(N2CCN(Cc3nc4scc(-c5cccs5)c4c(=O)[nH]3)CC2)cc1,inconclusive: 20.2%,–,–
COc1ccccc1Nc1cc(N2CCOCC2)c2nonc2c1[N+](=O)[O-],inconclusive: -15.2%,–,–
CCOc1ccc(NC(=S)N(CCc2c(C)[nH]c3ccc(C)cc23)Cc2cccnc2)cc1,–,"inconclusive: 0.231 µM [activator, full curve]",–
CCOc1ccc(-n2c(SCC(=O)NCc3ccco3)nnc2-c2c[nH]c3ccccc23)cc1,–,–,inactive [at 46.1 µM]
Cc1ccc(S(=O)(=O)N2CCCC2)cc1C(=O)NCc1ccccn1,inconclusive: 10.6%,–,–
CN(c1ncc(C(F)(F)F)cc1Cl)n1cc(C(N)=O)c2ccccc2c1=O,inconclusive: -2.75%,–,–
C=CCNC(=O)Cc1c(OC)ccc2cc(Br)ccc12,inconclusive: 18.4%,–,–
C=C(C)COc1ccc(-c2nc(N)ncc2-c2ccccc2OC)c(O)c1,inconclusive: -19.9%,–,–
CCOC(=O)c1c([N+](=O)[O-])c(C)[nH]c(=O)c1C#N,–,"inconclusive: 29.1 µM [cytotoxic, partial curve, poor fit]",–

SMILES,"lipid storage change, negative = inhibition",Potency,outcome
CC(C)Cn1c(SC(C)C(=O)NCC2CCCO2)nc2ccc(Cl)cc2c1=O (stereo not given),inconclusive: 9.32%,–,–
CCN1CCN(S(=O)(=O)c2ccc(Cl)c(C(=O)Nc3nnc(C)s3)c2)CC1,inconclusive,–,–
CC1CN(C(=O)c2cc3c(=O)n4ccccc4nc3n2C)CC(C)O1 (stereo not given),–,–,inactive [at 46.1 µM]
CN=C1SC(CC(=O)Nc2cccc(Cl)c2Cl)C(=O)N1C (stereo not given),inconclusive: -34.2%,–,–
CCOc1ccccc1N(CC(=O)Nc1ccc(OC)c(OC)c1)S(=O)(=O)c1ccccc1,–,"inconclusive: 29.1 µM [falling, single point]",–
Cc1ccc(-c2n[nH]c(=O)c3ccccc23)cc1S(=O)(=O)NCC1CCCO1 (stereo not given),–,"inconclusive: 0.116 µM [falling, partial curve, poor fit]",–
CCOC(=O)c1cc(-c2ccc(C)cc2)n(CC(=O)NCc2ccco2)c1C,inconclusive: -1.51%,–,–
Cc1nc(-c2ccc(Cl)cc2)sc1C1(C)CC(c2ccc(C#N)cc2)=NO1 (stereo not given),inconclusive: 17.4%,–,–
Cc1cc(Br)cc(/C=N/NC(=O)c2ccc3c(c2)OCO3)c1O,inconclusive: -33.3%,–,–
COc1ccc(CNC(=O)C2CCN(C(=O)c3ccccc3)CC2)cc1,inconclusive: 25.9%,–,–
O=C(O)C1CC(c2ccccc2F)=NO1 (stereo not given),–,"inconclusive: 3.66 µM [cytotoxic, full curve]",–
CC(C)c1ccc(CN(C(=O)C2COc3ccccc3O2)C2CCS(=O)(=O)C2)cc1 (stereo not given),–,"inconclusive: 6.51 µM [activator, single point]",–
O=[N+]([O-])c1cc([N+](=O)[O-])c(Oc2ccc(Cl)c3cccnc23)cc1NN1CCCCC1,inconclusive: -8.78%,–,–
O=C(CCS(=O)(=O)CCN1CCOCC1)NCNC(=O)CCS(=O)(=O)CCN1CCOCC1,inconclusive: 4.16%,–,–
CN(C)CCCNC(=S)N(CCCO)Cc1cc2cc3c(cc2[nH]c1=O)OCO3,–,"inconclusive: 6.51 µM [activator, single point]",–
CCCCn1c(=O)c(CCC(=O)OCC(=O)Nc2cc(Cl)ccc2OC)nc2ccccc21,inconclusive: 14.7%,–,–
Nc1ccccc1-c1nnc(SCc2ccccc2Cl)[nH]c1=O,–,"inconclusive: 8.2 µM [activator, partial curve]",–
CCc1ccc(C(C(=O)NC2CCCC2)N(Cc2cccnc2)C(=O)c2csnn2)cc1 (stereo not given),–,"inconclusive: 20.6 µM [activator, single point]",–
Nc1cccc(C#Cc2ccc3c(=O)c4ccccc4oc3c2)c1,–,–,inactive [at 46.1 µM]
COc1cc(-c2nnn(CC#N)n2)ccc1OCc1ccccc1,–,"inconclusive: 0.0052 µM [activator, full curve, poor fit]",–
COc1ccccc1CNC(=O)COC(=O)c1ccccc1SCC(=O)N1CCCC1,inconclusive: 26.9%,–,–
COc1ccc(-c2cc(C(F)(F)F)nc(-n3cc(Cl)cn3)n2)cc1,inconclusive: -88.7%,–,–
Cc1nc2cc(C(F)(F)F)ccc2n1C1CCN(C(=O)N2CCOCC2)CC1,inconclusive: 52.4%,–,–
Cc1ccc(S(=O)(=O)N(CC(=O)NCc2ccncc2)Cc2ccccc2F)cc1,–,"inconclusive: 1.16 µM [activator, single point]",–
CCCCNC(=O)CSc1nc2ccccc2c(=O)n1C1CCCC1,inconclusive: -19.3%,–,–
